Drawing on patent publication US20200071378A1, this text covers binding for one molecule.

For this assay, the target named is T1, recombinant murine OX40 protein (plate-bound) (murine) (UniProt P47741).
T1 sequence (looked up): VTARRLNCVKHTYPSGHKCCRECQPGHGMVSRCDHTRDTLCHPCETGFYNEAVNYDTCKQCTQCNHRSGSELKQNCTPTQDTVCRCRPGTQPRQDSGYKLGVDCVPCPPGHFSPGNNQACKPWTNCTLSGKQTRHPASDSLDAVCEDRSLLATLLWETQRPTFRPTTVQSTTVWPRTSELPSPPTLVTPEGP
In words: ELISA 'Binding to OX40', standard curve: plate-bound recombinant murine OX40, detection with anti-OX40L plus an HRP detection antibody; the axis is a dilution.

These are yes or no findings as the source states them, for the method shown. Some binding calls cover weakened binding; strength is not graded here.

B1: mOX40L Standard (ligand)
chain: SSSPAKDPPIQRLRGAVTRCEDGQLFISSYKNEYQTMEVQNNSVVIKCDGLYIIYLKGSFFQEVKIDLHFREDHNPISIPMLNDGRRIVFTVVASLAFKDKVYLTVNAPDTLCEHLQINDGELIVVQLTPGYCAPEGSYHSTVNQVPL
Consider B1, for which the binding result is “binds”.
